PubChem BioAssay AID1508597 | Cure First, 2020
Screen: 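Knock-downs altering ovarian cancer cell survival with or without PARP inhibitor rucaparib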 (primary screen). Cell system: human ovarian carcinoma lines grown from tumours: OCI-P5x (papillary serous) and OCI-C5x (clear cell). Reagent: siRNA pool against human genes, 1.25 pmol siRNA per well. Duration: 72 h or 96 h, depending on the cell culture. Treatment: rucaparib 20 µM (about IC30) or vehicle, present until read-out. Rucaparib or vehicle: Vehicle. Cell line: OCI-C5x (clear cell). Measured: 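ATP luminescence measured at 72 or 96 h according to the culture, then normalised and expressed as percent viability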. Direction: viability, normalised: higher = more viable cells remaining. Call rule: 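a well counts as a hit if its normalised viability is under 80 percent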. Calls: active = viability under 80%; inactive = viability 80% or more.
This is a random part of the about 2,100 reagents, in one setting of the screen. 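Calls flag viability under 80% in either arm, not effects specific to rucaparib; the reference for percent is not stated.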 Some reagents were tested in more than one well and are listed for each. Not stated in the record: the 100% reference.

| gene knocked down | technical replicate | viability, normalised (%) | Outcome |
| --- | --- | --- | --- |
| PAX5 | 1 | 32 | active |
| PAX5 | 2 | 22.5 | active |
| PAX5 | 3 | 31.7 | active |
| DMPK | 1 | 58.4 | active |
| DMPK | 2 | 50.5 | active |
| DMPK | 3 | 72.4 | active |
| NEIL2 | 1 | 48.8 | active |
| NEIL2 | 2 | 51.3 | active |
| NEIL2 | 3 | 59 | active |
| ACVR1B | 1 | 84 | inactive |
| ACVR1B | 2 | 73.7 | active |
| ACVR1B | 3 | 50.7 | active |
| PDE3B | 1 | 59.1 | active |
| PDE3B | 2 | 55.8 | active |
| PDE3B | 3 | 49.8 | active |
| MBD1 | 1 | 39.2 | active |
| MBD1 | 2 | 56.4 | active |
| MBD1 | 3 | 43.6 | active |
| CLCF1 | 1 | 27.1 | active |
| CLCF1 | 2 | 45.6 | active |
| CLCF1 | 3 | 42.1 | active |
| POU1F1 | 1 | 36.8 | active |
| POU1F1 | 2 | 34.2 | active |
| POU1F1 | 3 | 37.8 | active |
| VRK2 | 1 | 77.5 | active |
| VRK2 | 2 | 69.2 | active |
| VRK2 | 3 | 63.2 | active |
| PAK3 | 1 | 77.2 | active |
| PAK3 | 2 | 62.7 | active |
| PAK3 | 3 | 42.1 | active |
| ALG8 | 1 | 53.4 | active |
| ALG8 | 2 | 50.7 | active |
| ALG8 | 3 | 43.1 | active |
| FXR1 | 1 | 46.4 | active |
| FXR1 | 2 | 58.1 | active |
| FXR1 | 3 | 53.8 | active |
| UBE2B | 1 | 25.1 | active |
| UBE2B | 1 | 32.1 | active |
| UBE2B | 2 | 76.5 | active |
| UBE2B | 2 | 33.2 | active |
| UBE2B | 3 | 53.2 | active |
| UBE2B | 3 | 40.3 | active |
| ZDHHC17 | 1 | 42.1 | active |
| ZDHHC17 | 2 | 38.7 | active |
| ZDHHC17 | 3 | 47.1 | active |
| CELF1 | 1 | 29.8 | active |
| CELF1 | 2 | 46.2 | active |
| CELF1 | 3 | 23.2 | active |
| ROCK1 | 1 | 128 | inactive |
| ROCK1 | 2 | 69.8 | active |
| ROCK1 | 3 | 69.3 | active |
| CECR2 | 1 | 46.9 | active |
| CECR2 | 1 | 66.8 | active |
| CECR2 | 2 | 53.4 | active |
| CECR2 | 2 | 41.3 | active |
| CECR2 | 3 | 53 | active |
| CECR2 | 3 | 52.4 | active |

Reformatted: entries from further up.
gene knocked down | technical replicate | viability, normalised (%) | Outcome
PAK3 | 2 | 62.7 | active
PAK3 | 3 | 42.1 | active
ALG8 | 1 | 53.4 | active
